Source: the supplement of paper PMC10849652
The other results are listed elsewhere or left out.

The chains behind the UniProt entries cited, without tags or fusion partners. Where a name states a change or a piece, a line headed by the entry shows the natural chain unless it says otherwise.
UniProt Q92664: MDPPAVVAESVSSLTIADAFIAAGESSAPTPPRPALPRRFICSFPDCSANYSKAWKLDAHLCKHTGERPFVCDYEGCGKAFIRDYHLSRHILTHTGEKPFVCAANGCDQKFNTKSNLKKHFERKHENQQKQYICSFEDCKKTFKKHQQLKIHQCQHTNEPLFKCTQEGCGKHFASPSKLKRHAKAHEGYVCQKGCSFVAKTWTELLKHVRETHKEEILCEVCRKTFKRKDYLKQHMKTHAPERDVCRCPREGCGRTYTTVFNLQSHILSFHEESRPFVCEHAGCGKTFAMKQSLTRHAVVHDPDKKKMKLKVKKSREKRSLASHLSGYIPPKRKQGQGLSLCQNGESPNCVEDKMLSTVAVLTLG
UniProt Q9BX10: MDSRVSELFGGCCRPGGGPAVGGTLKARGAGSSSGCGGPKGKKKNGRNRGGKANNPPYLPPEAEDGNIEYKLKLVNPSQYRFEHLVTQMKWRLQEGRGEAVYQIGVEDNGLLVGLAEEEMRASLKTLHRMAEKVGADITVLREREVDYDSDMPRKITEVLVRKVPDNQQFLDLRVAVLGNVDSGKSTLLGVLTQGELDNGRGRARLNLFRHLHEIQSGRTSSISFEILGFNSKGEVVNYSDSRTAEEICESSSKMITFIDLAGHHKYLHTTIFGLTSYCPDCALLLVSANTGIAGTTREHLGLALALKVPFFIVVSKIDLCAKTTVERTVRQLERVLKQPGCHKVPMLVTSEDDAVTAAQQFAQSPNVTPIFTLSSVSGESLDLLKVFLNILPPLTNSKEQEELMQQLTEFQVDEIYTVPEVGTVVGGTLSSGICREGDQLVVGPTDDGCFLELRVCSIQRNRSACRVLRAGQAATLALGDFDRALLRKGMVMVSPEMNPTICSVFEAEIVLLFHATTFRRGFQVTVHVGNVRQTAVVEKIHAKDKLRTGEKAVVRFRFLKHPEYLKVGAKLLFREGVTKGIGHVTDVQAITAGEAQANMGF
UniProt Q9Y3E1: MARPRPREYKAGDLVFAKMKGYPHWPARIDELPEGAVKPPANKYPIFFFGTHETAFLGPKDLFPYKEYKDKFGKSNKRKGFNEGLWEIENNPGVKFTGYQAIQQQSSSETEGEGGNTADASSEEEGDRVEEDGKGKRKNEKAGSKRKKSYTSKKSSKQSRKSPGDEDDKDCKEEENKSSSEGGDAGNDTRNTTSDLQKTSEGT
UniProt P09105: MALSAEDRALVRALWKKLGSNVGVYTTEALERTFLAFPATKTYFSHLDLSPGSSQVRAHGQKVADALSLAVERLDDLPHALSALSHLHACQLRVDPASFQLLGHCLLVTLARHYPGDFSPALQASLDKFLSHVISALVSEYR
UniProt P34947, whole entry, looked up: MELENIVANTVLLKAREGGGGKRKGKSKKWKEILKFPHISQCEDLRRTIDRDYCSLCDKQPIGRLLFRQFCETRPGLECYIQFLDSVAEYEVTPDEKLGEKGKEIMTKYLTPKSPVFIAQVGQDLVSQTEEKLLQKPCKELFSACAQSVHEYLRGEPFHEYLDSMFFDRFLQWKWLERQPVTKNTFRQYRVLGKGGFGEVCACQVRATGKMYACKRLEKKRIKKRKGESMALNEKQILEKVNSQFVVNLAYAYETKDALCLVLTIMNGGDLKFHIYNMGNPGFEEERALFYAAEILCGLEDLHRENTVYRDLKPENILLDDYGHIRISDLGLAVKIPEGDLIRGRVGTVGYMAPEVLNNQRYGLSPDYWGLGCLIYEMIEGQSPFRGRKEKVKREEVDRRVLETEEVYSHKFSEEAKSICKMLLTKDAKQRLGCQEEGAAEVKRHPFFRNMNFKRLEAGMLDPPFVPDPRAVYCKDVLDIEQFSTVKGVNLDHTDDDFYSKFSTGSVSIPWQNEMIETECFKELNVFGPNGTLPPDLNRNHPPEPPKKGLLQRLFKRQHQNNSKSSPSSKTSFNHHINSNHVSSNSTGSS
UniProt P21266: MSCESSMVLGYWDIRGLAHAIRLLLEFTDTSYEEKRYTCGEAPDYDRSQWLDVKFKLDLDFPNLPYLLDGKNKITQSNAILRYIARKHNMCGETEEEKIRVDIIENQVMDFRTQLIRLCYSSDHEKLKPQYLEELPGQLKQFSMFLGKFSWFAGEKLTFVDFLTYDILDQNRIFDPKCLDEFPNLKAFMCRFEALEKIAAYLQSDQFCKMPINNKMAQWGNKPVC
UniProt Q6IC98: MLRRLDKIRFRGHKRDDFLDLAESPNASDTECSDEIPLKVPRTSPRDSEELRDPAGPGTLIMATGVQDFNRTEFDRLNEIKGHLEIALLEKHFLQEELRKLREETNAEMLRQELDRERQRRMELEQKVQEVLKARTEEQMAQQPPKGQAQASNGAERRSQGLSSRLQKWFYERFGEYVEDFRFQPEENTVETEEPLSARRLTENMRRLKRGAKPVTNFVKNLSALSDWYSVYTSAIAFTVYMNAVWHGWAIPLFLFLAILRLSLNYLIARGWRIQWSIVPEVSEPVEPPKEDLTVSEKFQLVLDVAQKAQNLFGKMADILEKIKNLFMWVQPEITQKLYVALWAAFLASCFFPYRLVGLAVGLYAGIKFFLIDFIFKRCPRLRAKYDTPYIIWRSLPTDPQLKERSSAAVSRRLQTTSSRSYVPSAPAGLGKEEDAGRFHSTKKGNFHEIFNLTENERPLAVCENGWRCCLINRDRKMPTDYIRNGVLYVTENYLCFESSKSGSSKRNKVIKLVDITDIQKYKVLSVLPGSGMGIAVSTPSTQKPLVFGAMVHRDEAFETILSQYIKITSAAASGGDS
UniProt Q8TD30: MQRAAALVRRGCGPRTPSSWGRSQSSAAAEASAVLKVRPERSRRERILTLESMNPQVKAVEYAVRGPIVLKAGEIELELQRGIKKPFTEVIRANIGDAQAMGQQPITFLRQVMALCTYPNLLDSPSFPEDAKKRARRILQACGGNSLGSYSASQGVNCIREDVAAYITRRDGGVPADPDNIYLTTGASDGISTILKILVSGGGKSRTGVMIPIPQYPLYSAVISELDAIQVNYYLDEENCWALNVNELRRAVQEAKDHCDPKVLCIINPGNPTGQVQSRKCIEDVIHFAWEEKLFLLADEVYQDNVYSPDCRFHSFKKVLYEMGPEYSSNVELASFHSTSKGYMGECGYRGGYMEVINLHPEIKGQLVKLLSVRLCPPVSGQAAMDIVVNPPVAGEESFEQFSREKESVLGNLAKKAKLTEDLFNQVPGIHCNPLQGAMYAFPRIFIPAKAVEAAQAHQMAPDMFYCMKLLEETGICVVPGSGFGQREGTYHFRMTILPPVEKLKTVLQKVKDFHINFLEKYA
UniProt P13984, whole entry, looked up: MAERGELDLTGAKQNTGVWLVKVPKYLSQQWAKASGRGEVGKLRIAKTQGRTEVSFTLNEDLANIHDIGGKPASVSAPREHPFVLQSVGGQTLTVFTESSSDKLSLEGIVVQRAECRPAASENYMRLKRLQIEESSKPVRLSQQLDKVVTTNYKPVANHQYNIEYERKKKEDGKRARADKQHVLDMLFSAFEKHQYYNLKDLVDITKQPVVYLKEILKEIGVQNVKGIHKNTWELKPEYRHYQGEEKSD
UniProt P04921: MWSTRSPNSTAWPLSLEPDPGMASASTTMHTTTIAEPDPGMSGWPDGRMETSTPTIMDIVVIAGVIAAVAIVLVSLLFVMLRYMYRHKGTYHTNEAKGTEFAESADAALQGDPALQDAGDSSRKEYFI
UniProt Q9UBN7: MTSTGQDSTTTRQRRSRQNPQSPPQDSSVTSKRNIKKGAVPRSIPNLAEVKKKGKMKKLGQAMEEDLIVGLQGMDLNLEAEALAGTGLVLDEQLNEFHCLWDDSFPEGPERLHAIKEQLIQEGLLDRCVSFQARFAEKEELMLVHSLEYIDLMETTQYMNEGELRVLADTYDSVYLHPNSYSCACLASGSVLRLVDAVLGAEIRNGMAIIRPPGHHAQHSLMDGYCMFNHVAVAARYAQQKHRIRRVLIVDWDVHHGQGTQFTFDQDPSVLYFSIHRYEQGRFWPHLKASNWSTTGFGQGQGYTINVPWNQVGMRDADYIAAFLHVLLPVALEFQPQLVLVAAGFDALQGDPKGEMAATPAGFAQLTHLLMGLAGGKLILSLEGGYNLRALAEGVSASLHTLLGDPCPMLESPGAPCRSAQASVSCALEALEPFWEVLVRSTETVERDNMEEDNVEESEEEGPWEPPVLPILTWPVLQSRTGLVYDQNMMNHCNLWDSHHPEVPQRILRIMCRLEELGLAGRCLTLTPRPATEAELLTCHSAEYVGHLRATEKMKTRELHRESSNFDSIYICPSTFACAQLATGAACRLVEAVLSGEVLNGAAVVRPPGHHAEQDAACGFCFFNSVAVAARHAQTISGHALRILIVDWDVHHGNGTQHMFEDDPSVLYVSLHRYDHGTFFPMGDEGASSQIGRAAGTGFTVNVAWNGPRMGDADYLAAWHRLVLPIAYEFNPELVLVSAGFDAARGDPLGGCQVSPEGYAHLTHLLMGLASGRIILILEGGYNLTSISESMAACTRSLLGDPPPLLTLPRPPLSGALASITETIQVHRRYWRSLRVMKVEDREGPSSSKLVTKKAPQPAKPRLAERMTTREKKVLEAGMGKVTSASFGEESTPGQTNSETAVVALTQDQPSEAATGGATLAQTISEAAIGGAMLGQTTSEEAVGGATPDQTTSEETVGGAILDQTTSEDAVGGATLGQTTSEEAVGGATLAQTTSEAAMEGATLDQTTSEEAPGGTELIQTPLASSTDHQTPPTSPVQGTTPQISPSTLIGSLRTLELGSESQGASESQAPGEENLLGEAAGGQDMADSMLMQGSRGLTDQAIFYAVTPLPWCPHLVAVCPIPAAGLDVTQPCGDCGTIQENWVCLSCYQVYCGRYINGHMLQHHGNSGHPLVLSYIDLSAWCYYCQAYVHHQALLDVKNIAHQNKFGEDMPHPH
UniProt Q9BSH5: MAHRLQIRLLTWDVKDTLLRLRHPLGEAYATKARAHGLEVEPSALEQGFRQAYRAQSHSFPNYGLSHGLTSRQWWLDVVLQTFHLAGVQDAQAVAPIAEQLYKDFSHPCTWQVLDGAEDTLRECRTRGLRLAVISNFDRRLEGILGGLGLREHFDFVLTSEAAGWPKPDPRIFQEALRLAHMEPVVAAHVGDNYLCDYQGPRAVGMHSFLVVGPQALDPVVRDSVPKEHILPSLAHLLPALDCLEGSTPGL
UniProt P29084: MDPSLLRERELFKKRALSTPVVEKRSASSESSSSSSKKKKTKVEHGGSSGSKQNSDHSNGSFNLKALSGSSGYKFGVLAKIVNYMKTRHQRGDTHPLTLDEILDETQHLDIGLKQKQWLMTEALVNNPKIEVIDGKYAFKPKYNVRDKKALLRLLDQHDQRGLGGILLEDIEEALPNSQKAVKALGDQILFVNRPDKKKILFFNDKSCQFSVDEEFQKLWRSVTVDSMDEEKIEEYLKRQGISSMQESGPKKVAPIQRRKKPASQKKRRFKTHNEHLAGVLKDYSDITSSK
UniProt P14317: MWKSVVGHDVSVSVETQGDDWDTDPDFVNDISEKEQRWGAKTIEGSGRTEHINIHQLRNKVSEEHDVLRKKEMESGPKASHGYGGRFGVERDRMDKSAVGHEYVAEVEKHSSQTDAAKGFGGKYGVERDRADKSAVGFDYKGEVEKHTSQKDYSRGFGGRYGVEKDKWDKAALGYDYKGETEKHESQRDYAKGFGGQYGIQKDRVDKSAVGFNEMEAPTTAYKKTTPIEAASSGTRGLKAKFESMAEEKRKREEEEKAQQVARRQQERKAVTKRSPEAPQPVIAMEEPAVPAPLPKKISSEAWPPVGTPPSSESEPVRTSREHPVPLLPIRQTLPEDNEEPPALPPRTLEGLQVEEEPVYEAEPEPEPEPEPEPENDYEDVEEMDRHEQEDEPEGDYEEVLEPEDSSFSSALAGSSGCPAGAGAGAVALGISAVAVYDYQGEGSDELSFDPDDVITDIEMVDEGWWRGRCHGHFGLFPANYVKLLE
UniProt O75367, whole entry, looked up: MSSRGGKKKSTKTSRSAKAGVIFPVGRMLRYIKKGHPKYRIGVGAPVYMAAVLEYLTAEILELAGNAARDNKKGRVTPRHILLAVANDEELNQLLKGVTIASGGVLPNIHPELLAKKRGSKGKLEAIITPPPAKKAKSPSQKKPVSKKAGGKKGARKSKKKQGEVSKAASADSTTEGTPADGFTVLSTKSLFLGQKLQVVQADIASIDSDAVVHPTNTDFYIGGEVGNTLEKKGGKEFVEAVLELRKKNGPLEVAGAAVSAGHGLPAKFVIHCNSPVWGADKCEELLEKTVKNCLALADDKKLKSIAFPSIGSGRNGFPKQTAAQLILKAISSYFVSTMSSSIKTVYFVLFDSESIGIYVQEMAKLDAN
UniProt Q9UBQ7: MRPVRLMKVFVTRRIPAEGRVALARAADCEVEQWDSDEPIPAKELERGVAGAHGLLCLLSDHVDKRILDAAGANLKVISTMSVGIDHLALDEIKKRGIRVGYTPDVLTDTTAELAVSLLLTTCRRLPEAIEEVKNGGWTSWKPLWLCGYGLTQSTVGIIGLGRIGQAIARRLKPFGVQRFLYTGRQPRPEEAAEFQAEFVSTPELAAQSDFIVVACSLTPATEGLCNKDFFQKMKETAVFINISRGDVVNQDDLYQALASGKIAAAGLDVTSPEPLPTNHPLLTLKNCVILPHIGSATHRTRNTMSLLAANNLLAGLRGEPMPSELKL

What was measured:
Assay in all cases: log2 fold change, soluble protein after heating vs DMSO (PISA); higher = thermal stabilisation; K562 lysate, 10 uM; active = over 0.2 and 3.5 SD of the protein, either way, in both replicates (recomputed)
[1] = compound: NCC(=O)Nc1ccc(-n2nc(C(F)(F)F)cc2-c2ccc3c(ccc4ccccc43)c2)cc1
Procedure, shortened: (§1)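 K562 pellets were dounce-homogenised in PBS pH 7.4 containing 1 mM MgCl2, and the crude extract, at 1 mg/mL protein, was exposed to 10 μM compound for 30 min. Aliquots were heated for 3 min across 48°C-58°C, pooled, brought to 0.5% NP-40 at 4°C and spun at 21,000xg for 90 min, with the supernatant taken as soluble protein. TMTpro 16plex LC-MS/MS with equalised channel sums quantified that protein. Values are log-two fold changes in thermal stability relative to solvent controls, taken from duplicates.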

[2] = compound: O=C(CCCCCCC(=O)Nc1ccccc1)NO [vorinostat]
Procedure, shortened: as §1

[3] = compound: O=C(O)c1ccc2c(c1)nc(Nc1cccc(Cl)c1)c1ccncc12 [silmitasertib]
Procedure, shortened: as §1

[4] = compound: O=C1NC(=O)C(c2cnc3ccccn23)=C1c1cn2c3c(cc(F)cc13)CN(C(=O)N1CCCCC1)CC2
Procedure, shortened: as §1

[5] = compound: c1cn2cc(-c3ccc4cn[nH]c4c3)nc(Nc3ccc(N4CCOCC4)cc3)c2n1 [entospletinib]
Procedure, shortened: as §1

Measured: log2 fold change

GTF3A (UniProt Q92664)
inactive: [1] 0.029 | [2] -0.001 | [3] 0.036 | [4] -0.018 | [5] -0.105

GTPBP2 (UniProt Q9BX10)
active: [2] -0.289
inactive: [1] 0.029 | [3] 0 | [4] -0.003 | [5] 0.056

HADH isoform 2 (UniProt Q16836)
inactive: [1] 0 | [2] -0.029 | [3] 0.005 | [4] 0.006 | [5] 0.022

HDGFL3 (UniProt Q9Y3E1)
inactive: [1] -0.015 | [2] 0.106 | [3] 0.004 | [4] -0.006 | [5] -0.002

HBQ1 (UniProt P09105)
inactive: [1] -0.084 | [2] 0.067 | [3] -0.041 | [4] 0.094 | [5] -0.128

HEATR5A (UniProt Q86XA9)
inactive: [1] -0.071 | [2] -0.163 | [3] 0.036 | [4] 0.047 | [5] 0.018

GRK5 (UniProt P34947)
inactive: [1] 0.032 | [2] -0.218 | [3] 0.499

Copied from above (six entries):
GTF3A (UniProt Q92664)
inactive: [1] 0.029 | [2] -0.001 | [3] 0.036 | [4] -0.018 | [5] -0.105

GTPBP2 (UniProt Q9BX10)
active: [2] -0.289
inactive: [1] 0.029 | [3] 0 | [4] -0.003 | [5] 0.056

HADH isoform 2 (UniProt Q16836)
inactive: [1] 0 | [2] -0.029 | [3] 0.005 | [4] 0.006 | [5] 0.022

HDGFL3 (UniProt Q9Y3E1)
inactive: [1] -0.015 | [2] 0.106 | [3] 0.004 | [4] -0.006 | [5] -0.002

HBQ1 (UniProt P09105)
inactive: [1] -0.084 | [2] 0.067 | [3] -0.041 | [4] 0.094 | [5] -0.128

HEATR5A (UniProt Q86XA9)
inactive: [1] -0.071 | [2] -0.163 | [3] 0.036 | [4] 0.047 | [5] 0.018

Following part:

HBS1L isoform 2 (UniProt Q9Y450)
inactive: [1] 0.028 | [2] -0.083 | [3] 0.056 | [4] -0.019 | [5] -0.012

HDHD2 (UniProt Q9H0R4)
inactive: [1] -0.054 | [2] 0.099 | [3] -0.007 | [4] -0.003 | [5] -0.007

GSTM3 (UniProt P21266)
inactive: [1] -0.011 | [2] -0.194 | [3] 0.068 | [4] -0.092 | [5] 0.02

HDAC10 (UniProt Q969S8)
inactive: [1] 0.147 | [2] 0.211 | [3] 0.156 | [4] -0.032 | [5] 0.053

GRAMD4 (UniProt Q6IC98)
inactive: [1] 0.229 | [2] -0.186 | [3] -0.129 | [4] 0.149 | [5] 0.008

HBG1 (UniProt P69891)
inactive: [1] -0.078 | [2] 0.1 | [3] -0.043 | [4] 0.04 | [5] -0.04

UniProt H0YHG0
inactive: [1] 0.021 | [2] 0.103 | [3] -0.029 | [4] -0.017 | [5] -0.021

GPT2 (UniProt Q8TD30)
inactive: [1] -0.127 | [2] -0.254 | [3] 0.08 | [4] -0.026 | [5] -0.068

GTF2F2 (UniProt P13984)
inactive: [1] -0.003 | [2] 0.108 | [3] -0.019 | [4] -0.019 | [5] 0.003

GYPC (UniProt P04921)
inactive: [1] 0.002 | [2] 0.047 | [3] 0 | [4] 0.013 | [5] -0.025

HDAC6 (UniProt Q9UBN7)
inactive: [1] -0.039 | [3] 0.016 | [4] -0.047 | [5] 0.007
active: [2] 0.513

GSKIP (UniProt Q9P0R6)
inactive: [1] -0.17 | [2] 0.194 | [3] 0.023 | [4] 0.044 | [5] -0.134

HDHD3 (UniProt Q9BSH5)
inactive: [1] -0.09 | [2] -0.002 | [3] 0.035 | [4] -0.016 | [5] -0.012

HDAC3 (UniProt O15379)
inactive: [1] -0.016 | [3] -0.027 | [4] -0.008 | [5] 0
active: [2] -0.264

GTF2E2 (UniProt P29084)
inactive: [1] 0 | [2] 0.04 | [3] -0.016 | [4] 0.008 | [5] -0.001

HCLS1 (UniProt P14317)
inactive: [1] 0.008 | [2] 0.087 | [3] -0.005 | [4] -0.029 | [5] 0.022

HBZ, A0A494C057
inactive: [1] -0.126

H2AFY (UniProt O75367)
inactive: [1] 0.008 | [2] 0.142 | [3] -0.029 | [4] -0.02 | [5] 0.079

GRHPR (UniProt Q9UBQ7)
inactive: [1] 0.02 | [2] -0.163 | [3] -0.016 | [4] 0.015 | [5] 0.028
